This test is described as follows: qHTS Assay for Modulators of Lamin A Splicing. Conditions: HeLa LMNA splicing GFP/RFP minigene ratio, 48 h. In short, it runs like this:
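S3 HeLa stable clones carrying a lamin A-EGFP splicing minigene plus DsRed2 were seeded at 600 cells/well in Opti-MEM with 2% FBS, pin-dosed and incubated 48 h at 37°C. Acumen cytometry (488 nm) gave the GFP/RFP total-intensity ratio.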

[1] abbreviates: measured here: GFP splicing reporter channel.
Where [2] appears, read: measured here: RFP viability control channel.

The term AC50 denotes the midpoint of the concentration-response curve, whichever way the signal moves.

The other results are listed elsewhere or left out. These are further read-outs of the screen, such as a control signal, another cell line or another target. No call is given for them. Compounds called inactive in the main read-out are mostly missing here. Words in brackets tell the shape of the fitted curve; partial curves, single points and poor fits give uncertain potencies.

Consider `CCOc1ccc(/C=C2\SC(=S)NC2=O)cc1OC`, for which the half-maximal activity concentration (AC50) runs as follows: under setting [1], 0.794 µM [rising, full curve, poor fit]; under setting [2], 0.891 µM [rising, full curve, poor fit].
Take `Clc1ccc(C[n+]2cc(-c3ccccc3)n3c2CCC3)cc1Cl`: the AC50 under setting [2] was 11.2 µM [rising, partial curve].
Regarding `CCCC(=O)C1=C(O)C(C(=O)OC)C(C)(C)CC1=Nc1ccc(C)cc1` (stereo unspecified), the AC50 was 35.5 µM [falling, single point] under setting [1] and 35.5 µM [falling, single point] under setting [2].
For the compound `CC(=O)C1=C(O)C(=O)N(CCc2c[nH]c3ccccc23)C1c1ccc(C)cc1` (stereo unspecified), the AC50 under setting [1] is 0.00355 µM [rising, full curve, poor fit].
On to `CCOC(=O)Cc1csc(NC(=O)/C=C\c2ccccc2Cl)n1`, for which the AC50 under setting [1] is 35.5 µM [falling, single point] and the AC50 under setting [2] is 22.4 µM [falling, single point].
Regarding `CSc1cccc(NC(=O)C2CCN(S(=O)(=O)c3ccc(F)cc3)CC2)c1`, the AC50 is, setting by setting: under setting [1], 14.1 µM [rising, single point]; under setting [2], 25.1 µM [rising, single point].
As to `COc1ccc(S(=O)(=O)N2CCCCCC2)cc1N(C)S(=O)(=O)c1ccccc1`, the AC50 under setting [2] is 14.1 µM [rising, single point].
Same read-out and setting: the result for `CCC(=O)OCCNc1cc(Sc2nc3ccccc3[nH]2)c2nonc2c1[N+](=O)[O-]` reads 25.1 µM [rising, single point].
As to `Cc1cc(C)cc(N(C)S(=O)(=O)c2nnc(NC(=O)COc3ccc(Cl)cc3)s2)c1`, under setting [1], the AC50 is 1.41 µM [falling, single point].
As for `CC(=O)c1cccc(NC(=O)CN2C(=O)CN(C)C(=O)c3ccccc32)c1`, the AC50 by setting is: under setting [1], 0.501 µM [falling, partial curve]; under setting [2], 0.282 µM [falling, full curve].
Consider `CC(C)=CCC/C(C)=C/Cc1c(O)ccc(C(=O)/C=C/c2ccc(O)cc2)c1O`, for which the AC50 under setting [1] was 11.2 µM [rising, single point] and the AC50 under setting [2] was 14.1 µM [rising, partial curve].
Take `Cc1ccc(N2CCN(c3cc(C)nc4c(-c5ccc(Cl)cc5)c(C)nn34)CC2C)cc1` (stereo unspecified): the AC50 under setting [2] is 0.0355 µM [falling, full curve, poor fit].
As to `O=C(Cc1ccc([N+](=O)[O-])cc1)Nc1ccc(Cl)cc1`, the AC50 under setting [1] is 0.0708 µM [falling, full curve].
As for `Cc1cccc2cc(CN(Cc3cccs3)S(=O)(=O)c3ccc4c(c3)OCCO4)c(=O)[nH]c12`, under setting [2], the AC50 was 22.4 µM [rising, single point].
As for `COc1ccc(NS(=O)(=O)c2cc(Cl)ccc2Cl)cc1S(=O)(=O)N1CCCCC1`, the AC50 under setting [1] was 0.112 µM [rising, full curve].

The values above are taken from PubChem BioAssay AID1487 (National Center for Advancing Translational Sciences (NCATS), 2009).
